The values below come from paper PMC10482896.

The target of the experiment is T1, Pcr1-Flag fusion protein (bZIP transcription factor Pcr1) (S. pombe) (UniProt Q09926).
T1 sequence: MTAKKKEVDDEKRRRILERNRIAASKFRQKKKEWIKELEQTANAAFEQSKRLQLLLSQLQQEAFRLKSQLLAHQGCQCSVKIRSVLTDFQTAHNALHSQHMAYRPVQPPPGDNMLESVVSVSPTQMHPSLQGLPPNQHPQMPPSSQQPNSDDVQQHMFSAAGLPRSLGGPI
The experiment can be described thus: co-IP; Pcr1-Flag precipitated with monoclonal anti-Flag on protein G Dynabeads from S. pombe extracts (3 mg, 5 h, 4 °C); cells untreated or treated with 1 mM H2O2 for 10 min, then cross-linked with formaldehyde (1.5%); lysis buffer 20 mM Tris pH 8, 100 mM NaCl, 2 mM EDTA, 0.5% NP-40; blots with anti-HA, anti-Flag and anti-Atf1.

No constants are given. Whether binding was seen depends on the method and setting. In cells and extracts the contact can be indirect. Some entries that bind do so weakly or less than the wild type. Where a sequence is shown, tags or fusion partners need not be part of it.

B1: Atf1 (bZIP transcription factor) (protein, UniProt P52890 1-566)
chain: MSPSPVNTSTEPASVAAVSNGNATASSTQVPENNQSDSFAPPSNNSQQNQQSSTIAPNGGAGSVANANPADQSDGVTPSFVGSLKLDYEPNPFEHSFGSTASVGQGNPSLNRNPSLSNIPSGVPPAFARTLLPPVSSIASPDILSGAPGIASPLGYPAWSAFTRGTMHNPLSPAIYDATLRPDYLNNPSDASAAARFSSGTGFTPGVNEPFRSLLTPTGAGFPAPSPGTANLLGFHTFDSQFPDQYRFTPRDGKPPVVNGTNGDQSDYFGANAAVHGLCLLSQVPDQQQKLQQPISSENDQAASTTANNLLKQTQQQTFPDSIRPSFTQNTNPQAVTGTMNPQASRTQQQPMYFMGSQQFNGMPSVYGDTVNPADPSLTLRQTTDFSGQNAENGSTNLPQKTSNSDMPTANSMPVKLENGTDYSTSQEPSSNANNQSSPTSSINGKASSESANGTSYSKGSSRRNSKNETDEEKRKSFLERNRQAALKCRQRKKQWLSNLQAKVEFYGNENEILSAQVSALREEIVSLKTLLIAHKDCPVAKSNSAAVATSVIGSGDLAQRINLGY
For B1, the binding entry was “binds”.

B2: Flp1-HA fusion protein (Cdc14-like phosphatase Flp1/Clp1) (enzyme, UniProt Q9P7H1 1-537)
chain: MDYQDDGLGEMIEFLEDKLYYTSLSQPPKAELYPHMHFFTIDDELIYNPFYHDFGPLNVSHLIRFAVIVHGIMGKHRQAKKSKAIVLYSSTDTRLRANAACLLACYMVLVQNWPPHLALAPLAQAEPPFLGFRDAGYAVSDYYITIQDCVYGLWRARESSILNIRNIDVHDYETYERVENGDFNWISPKFIAFASPIQAGWNHASTRPKKLPQPFAIVLDYFVANKVKLIVRLNGPLYDKKTFENVGIRHKEMYFEDGTVPELSLVKEFIDLTEEVEEDGVIAVHCKAGLGRTGCLIGAYLIYKHCFTANEVIAYMRIMRPGMVVGPQQHWLHINQVHFRAYFYEKAMGRAIQQATAAEPLATPPRHPLNATNGTSQSNISTPLPEPTPGQPRKVSGHNPPSARRLPSASSVKFNEKLKNASKQSIQNENKASYSSYEDSEIQNDDETRTVGTPTETISVVRLRRSSSQSNIEPNGVRSPTSSPTGSPIRRTSGNRWSSGSSHSKKSAQRSVSMSSLNNTSNGRVAKPKPSKSRLIS
Regarding B2, the binding result is given as “binds”.
